Publication PMC9239217
Residue numbers refer to the chain shown, from its start. The exact form of at least one protein or probe is not confirmed. For part of these data: A negative result means that nothing was seen under these conditions. Where a protein sequence is shown, tags need not be part of it. For part of these data: Whether high values mean tight binding is not given here for every scale.

Assays:
Test in all cases: fluorescence polarization
[1] = molecular target: T1, DndE (Natronorubrum bangense JCM10635) (UniProt L9WJT3); conditions: 10 nM fluorescein-labeled DNA, 100 mM NaCl, 50 mM Tris-HCl pH 8.0, room temperature, 200 uL, recombinant protein, residues 1-134, protein details: N-terminal His (pET28a)
T1 sequence (looked up): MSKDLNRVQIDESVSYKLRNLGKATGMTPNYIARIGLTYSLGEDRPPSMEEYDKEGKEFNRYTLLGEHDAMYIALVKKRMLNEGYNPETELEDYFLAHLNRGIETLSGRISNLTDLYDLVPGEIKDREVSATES

[2] = molecular target: T2, DndE G26K (Natronorubrum bangense JCM10635) (UniProt L9WJT3); conditions: nick between G and A of GATC; 10 nM fluorescein-labeled DNA, 100 mM NaCl, 50 mM Tris-HCl pH 8.0, room temperature, 200 uL; recombinant protein; residues 1-134; protein details: N-terminal His (pET28a); label: 5'-FAM on strand 1; folded or branched DNA
T2 sequence (looked up): T1 sequence (looked up) with G26K

[3] = molecular target: T3, DndE K23A (Natronorubrum bangense JCM10635) (UniProt L9WJT3); conditions: nick between G and A of GATC; 10 nM fluorescein-labeled DNA, 100 mM NaCl, 50 mM Tris-HCl pH 8.0, room temperature, 200 uL; recombinant protein; residues 1-134; protein details: N-terminal His (pET28a); label: 5'-FAM on strand 1; folded or branched DNA
T3 sequence (looked up): T1 sequence (looked up) with K23A

[4] = molecular target: T4, DndE R19A (Natronorubrum bangense JCM10635) (UniProt L9WJT3); conditions: nick between G and A of GATC; 10 nM fluorescein-labeled DNA, 100 mM NaCl, 50 mM Tris-HCl pH 8.0, room temperature, 200 uL; recombinant protein; residues 1-134; protein details: N-terminal His (pET28a); label: 5'-FAM on strand 1; folded or branched DNA
T4 sequence (looked up): T1 sequence (looked up) with R19A

[5] = molecular target: T5, DndE R34A (Natronorubrum bangense JCM10635) (UniProt L9WJT3); conditions: nick between G and A of GATC; 10 nM fluorescein-labeled DNA, 100 mM NaCl, 50 mM Tris-HCl pH 8.0, room temperature, 200 uL; recombinant protein; residues 1-134; protein details: N-terminal His (pET28a); label: 5'-FAM on strand 1; folded or branched DNA
T5 sequence (looked up): T1 sequence (looked up) with R34A

GCCGGGGGATCCACTAGGTTACCTAGTGG / ATCCCCCGGC [nDNA, nicked (E-D3-F/E-D3-R)]
Kd ([1]; nick between G and A of GATC, label: 5'-FAM on strand 1, folded or branched DNA): 18.8 µM
Kd [2]: 8.7 µM
binding signal (fold decrease in affinity vs WT) [3]: 2.2
binding signal (fold decrease in affinity vs WT) [4]: 1.4
binding signal (fold decrease in affinity vs WT) [5]: 3.3

GCGGAGGACCTTACGCGGTTACCGCGTAA / GGTCCTCCGC [nDNAs, shuffled nicked (E-D4-F/E-D4-R)]
binding result ([1]; nick outside GATC, label: 5'-FAM on strand 1, folded or branched DNA): binds

GCGTAAGGTCCTCC (double strand) [dsDNAs, shuffled (E-D2-F/E-D2-R)]
Kd ([1]; label: 5'-FAM on strand 1): 43.2 µM

TAGTGGATCCCCCG (double strand) [dsDNA (E-D1-F/E-D1-R)]
Kd ([1]; label: 5'-FAM on strand 1): 48.4 µM

TAGTGGATCCCCCG [ssDNA]
binding result ([1]; label: 5'-FAM, single-stranded DNA): no binding
